Laboratory results: article PMC11811201
These are yes or no findings as the source states them, for the method shown. Binding seen in cells or lysates may run through a third protein. Some binding calls cover weakened binding; strength is not graded here. Where a sequence is shown, tags or fusion partners need not be part of it.

Chains of the proteins cited; added tags and fusions are not shown.
UniProt P70032: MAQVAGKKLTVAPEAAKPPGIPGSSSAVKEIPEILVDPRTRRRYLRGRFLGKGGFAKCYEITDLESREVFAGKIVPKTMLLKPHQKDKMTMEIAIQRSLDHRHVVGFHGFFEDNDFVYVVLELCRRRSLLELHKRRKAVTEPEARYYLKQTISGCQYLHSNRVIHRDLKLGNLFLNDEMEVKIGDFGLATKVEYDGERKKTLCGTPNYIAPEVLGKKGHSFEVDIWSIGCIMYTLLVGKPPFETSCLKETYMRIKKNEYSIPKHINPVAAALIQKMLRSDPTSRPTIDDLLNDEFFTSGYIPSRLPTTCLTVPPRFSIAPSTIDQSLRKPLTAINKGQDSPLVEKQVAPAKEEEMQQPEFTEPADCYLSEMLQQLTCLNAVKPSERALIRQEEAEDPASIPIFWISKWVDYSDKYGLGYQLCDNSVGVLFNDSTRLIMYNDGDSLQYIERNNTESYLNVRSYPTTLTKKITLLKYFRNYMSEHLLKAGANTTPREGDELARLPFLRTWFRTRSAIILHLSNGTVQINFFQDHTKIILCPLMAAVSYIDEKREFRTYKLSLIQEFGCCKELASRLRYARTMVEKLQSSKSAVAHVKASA

T1: Flag-tagged full-length stable XErp1 (Flag-XErp1^s WT) (Xenopus laevis) (UniProt Q8AXF4)
T1 sequence: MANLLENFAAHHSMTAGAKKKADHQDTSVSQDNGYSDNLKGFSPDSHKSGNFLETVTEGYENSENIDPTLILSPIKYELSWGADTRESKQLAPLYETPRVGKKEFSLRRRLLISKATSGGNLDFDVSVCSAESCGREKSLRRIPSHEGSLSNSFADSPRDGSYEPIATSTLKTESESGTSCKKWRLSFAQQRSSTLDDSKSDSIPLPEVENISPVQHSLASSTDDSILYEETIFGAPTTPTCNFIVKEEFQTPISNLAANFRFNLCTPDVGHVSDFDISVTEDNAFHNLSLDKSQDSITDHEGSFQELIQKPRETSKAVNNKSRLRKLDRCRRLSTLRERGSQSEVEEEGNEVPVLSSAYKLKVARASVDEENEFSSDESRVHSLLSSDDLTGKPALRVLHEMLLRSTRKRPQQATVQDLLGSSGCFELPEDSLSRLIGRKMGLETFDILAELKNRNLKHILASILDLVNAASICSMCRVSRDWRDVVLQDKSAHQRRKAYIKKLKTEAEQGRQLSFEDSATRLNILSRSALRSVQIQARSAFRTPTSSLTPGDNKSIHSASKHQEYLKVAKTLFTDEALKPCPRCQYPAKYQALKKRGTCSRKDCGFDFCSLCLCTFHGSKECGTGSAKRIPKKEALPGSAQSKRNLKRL

T2: Flag-tagged full-length stable XErp1 T170A (Flag-XErp1^s T170A) (Xenopus laevis) (UniProt Q8AXF4)
T2 sequence: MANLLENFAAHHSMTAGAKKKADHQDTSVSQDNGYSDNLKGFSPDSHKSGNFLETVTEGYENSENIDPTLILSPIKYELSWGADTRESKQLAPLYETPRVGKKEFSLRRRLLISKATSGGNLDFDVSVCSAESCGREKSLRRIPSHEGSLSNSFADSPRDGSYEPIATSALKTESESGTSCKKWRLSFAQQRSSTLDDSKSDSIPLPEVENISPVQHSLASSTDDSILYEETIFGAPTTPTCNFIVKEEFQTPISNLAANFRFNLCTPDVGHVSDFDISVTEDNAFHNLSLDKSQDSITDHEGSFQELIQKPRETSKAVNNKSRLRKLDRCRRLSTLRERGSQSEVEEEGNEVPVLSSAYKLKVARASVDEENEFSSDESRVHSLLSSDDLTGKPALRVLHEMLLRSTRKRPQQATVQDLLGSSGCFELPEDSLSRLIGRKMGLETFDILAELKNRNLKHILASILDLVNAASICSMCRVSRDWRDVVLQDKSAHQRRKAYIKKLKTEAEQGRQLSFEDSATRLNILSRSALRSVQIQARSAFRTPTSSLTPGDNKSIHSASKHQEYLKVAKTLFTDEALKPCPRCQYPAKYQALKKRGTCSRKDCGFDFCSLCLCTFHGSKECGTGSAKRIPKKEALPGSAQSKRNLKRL

T3: Flag-tagged full-length stable XErp1 T97A (Flag-XErp1^s T97A) (Xenopus laevis) (UniProt Q8AXF4)
T3 sequence: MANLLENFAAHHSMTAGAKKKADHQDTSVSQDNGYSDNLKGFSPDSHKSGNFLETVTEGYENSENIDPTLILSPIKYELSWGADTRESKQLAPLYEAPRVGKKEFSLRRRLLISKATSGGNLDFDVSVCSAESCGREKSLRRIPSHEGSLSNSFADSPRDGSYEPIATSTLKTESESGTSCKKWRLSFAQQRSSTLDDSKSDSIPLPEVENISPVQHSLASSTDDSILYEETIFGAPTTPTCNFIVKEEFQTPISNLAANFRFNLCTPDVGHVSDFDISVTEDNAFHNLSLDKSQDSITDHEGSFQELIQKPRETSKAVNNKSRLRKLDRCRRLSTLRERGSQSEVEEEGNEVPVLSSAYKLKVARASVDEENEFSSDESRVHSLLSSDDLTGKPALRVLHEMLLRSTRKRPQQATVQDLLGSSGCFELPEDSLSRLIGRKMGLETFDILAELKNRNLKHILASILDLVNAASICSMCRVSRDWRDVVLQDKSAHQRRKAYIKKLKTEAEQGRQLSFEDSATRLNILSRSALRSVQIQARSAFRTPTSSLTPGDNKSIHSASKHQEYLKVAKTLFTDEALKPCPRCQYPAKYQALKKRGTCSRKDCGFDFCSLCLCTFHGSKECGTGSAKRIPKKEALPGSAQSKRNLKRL

T4: XErp1 pT97 peptide (aa 90-104, phosphorylated at T97) (Xenopus laevis)
T4 sequence (peptide, phosphothreonine at T97): CQLAPLYETPRVGKKE


Assays:
[1] = biological target: T1, Flag-tagged full-length stable XErp1 (Flag-XErp1^s WT) (Xenopus laevis); assay: condition: only with pocket mutant cyclin B3 in the extract in place of cyclin B3^WT; co-IP; as a3, but the extract held IVT Myc-cyclin B3^PM (pocket mutant) in place of Myc-cyclin B3^WT
[2] = biological target: T1, Flag-tagged full-length stable XErp1 (Flag-XErp1^s WT) (Xenopus laevis); assay: co-IP; α-Flag IP of IVT Flag-XErp1^s variants from CSF extract with IVT Myc-cyclin B3^WT, Myc-XErp1^CT and MG262; extract diluted 1:4 with IP buffer (20 mM Tris-HCl pH 7.5, 100 mM NaCl, 10 mM EDTA); 30 min at RT; blot for endogenous Plk1
[3] = biological target: T2, Flag-tagged full-length stable XErp1 T170A (Flag-XErp1^s T170A) (Xenopus laevis); assay: as above
[4] = biological target: T3, Flag-tagged full-length stable XErp1 T97A (Flag-XErp1^s T97A) (Xenopus laevis); assay: as above
[5] = biological target: T4, XErp1 pT97 peptide (aa 90-104, phosphorylated at T97) (Xenopus laevis); assay: pull-down; XErp1 aa 90–104 peptides coupled to SulfoLink beads, incubated 30 min at 4 °C with CSF extract (MG262, Myc-XErp1^CT IVT) that expressed Flag-cyclins from mRNA, diluted 1:5 in IPB (20 mM Tris-HCl pH 7.5, 100 mM NaCl, 10 mM EDTA); Western blot of beads; only the target purified

binding [1]	binding [2]	binding [3]	binding [4]	binding [5]	Molecule
no binding	binds	no binding	no binding	–	Polo-like kinase 1 (endogenous, Xenopus CSF extract) (from UniProt P70032 1-598) (enzyme)
–	–	–	–	binds weakly	Flag-tagged wildtype Xenopus cyclin B1 (translated from mRNA in CSF extract) (protein, UniProt Q6IR86 1-393) MALIMTRSMRLNAENVAQGMAGKKAAVSKPVPKPRNALGDIGNQIGKAKVPLKKTTKALRKPTVQKSEKLAVLEENVPKEAQKAAPDSPSPMETSVCVIEEMQPEPAFSSALIPVTDVDAEDSDNPMLCSDYVKDIYCYLRNLEAEQAIGPHYLDGQEINGNMRAILVDWLVQVQLRFKLLQETMSMTVSILDRFLQENPVPKKLLQLAGVSAMFIACKYEEIYCPSIGDFVFVTDNTYTKSQIRNMEMQILRVLNFDIGRPLPLHFLRRASKIGEVDSVHHTLAKYLIELVMTDYDMVHIPPSQLAAAAFCLAMKILNSGEWTPTLEHYMAYKESSLTPVMQHIAKNIVKVNGGHTKFMSVKNKYTSSRQMKISCLPHLKSELVENLAKAAS
